Values from PubChem BioAssay AID504774 (Drosophila RNAi Screening Center, 2011)

- Assay: 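Genes required for cells to withstand methyl methanesulphonate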 (primary screen)
- Cells: Drosophila Kc167 cells
- Reagents: long dsRNA against Drosophila genes, about 0.25 µg dsRNA per well
- Timing: about 6 days: 3 days knock-down, then 3 days with or without MMS
- Challenge: methyl methanesulphonate 0.004% (w/v) for 3 days after knock-down
- Measurement: 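Viability in wells given MMS, read as ATP luminescence, normalised by quantiles plate by plate and averaged across replicates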
- Reading the numbers: mean viability with MMS: higher = more surviving cells after MMS
The screen tested about 23,000 reagents; this is an unselected part of those with a known target gene and a result. 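Values are quantile-normalised luminescence on an arbitrary scale; higher means more cells surviving MMS.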 Names joined by + are all predicted targets of the reagent. Not all columns of the deposit are shown.

mean viability with MMS, by gene and reagent
CG42726 + CG42727: DRSC14485 3.47e6
CG6761: DRSC10705 3.41e6
CG7271: DRSC22561 3.49e6
c12.1: DRSC18750 3.46e6
CG43102: DRSC14797 3.85e6; DRSC16239 3.58e6
Iru: DRSC14457 3.71e6
CG5440: DRSC00685 3.53e6
PLCXD: DRSC02427 3.71e6
CG15035: DRSC17967 3.49e6
RyR: DRSC07543 3.69e6
CG5447: DRSC15801 3.29e6
Psf3: DRSC18216 3.55e6; DRSC21487 3.57e6
CG15544: DRSC15082 3.67e6
CG17221: DRSC00487 3.43e6
CG17169: DRSC20905 3.50e6
CG9135: DRSC03144 3.67e6
Ype: DRSC20301 3.54e6
CG14852: DRSC14976 3.55e6
Grx1t: DRSC04530 3.46e6
RpL23A: DRSC08694 3.08e6; DRSC22035 3.74e6
Dtg: DRSC15998 3.67e6
Pkd2: DRSC02962 3.81e6
CIA30: DRSC16266 3.59e6
qkr58E-2: DRSC04710 3.38e6
drm: DRSC00277 3.59e6
CG5255: DRSC15754 3.56e6
mir-210 (retired record): DRSC19230 3.55e6
Cpr64Aa: DRSC08460 3.39e6
Eig71Ee: DRSC11152 3.52e6
Faf2: DRSC03325 3.56e6
Apl: DRSC10350 3.59e6
CG34012: DRSC09089 3.42e6
CG15814: DRSC19730 3.55e6
Or9a: DRSC18692 3.49e6
CG15200: DRSC19647 3.51e6
UbcE2H: DRSC18221 3.61e6
CG43345: DRSC03164 3.82e6
Obp50a: DRSC22152 3.48e6
Had2: DRSC05971 3.55e6
CG31445: DRSC14443 3.58e6
mRpS35: DRSC08551 3.52e6
CG7384: DRSC03053 3.31e6
PQBP1: DRSC14393 3.45e6
CG10171: DRSC09711 3.50e6
Tsp42Ee: DRSC05947 3.61e6
CG12343: DRSC06135 3.38e6
CG5510: DRSC15823 3.67e6
Vap33: DRSC18384 3.61e6
CG32235: DRSC23257 3.56e6
CG5767: DRSC06953 3.63e6
CG13064: DRSC09947 3.59e6
Mlc-c: DRSC18683 3.49e6
wrd: DRSC16337 3.00e6; DRSC16344 3.61e6; DRSC23189 3.52e6
CG3803: DRSC04420 3.50e6
Su(var)205: DRSC03446 3.66e6
IntS2: DRSC20094 3.33e6
CG6900 (retired record): DRSC20018 3.59e6
CG15525: DRSC15062 3.54e6
CG15196: DRSC19643 3.50e6
CG9175: DRSC03153 3.25e6
CG14450: DRSC11707 3.33e6
CG32511 (retired record): DRSC20697 1.94e6
RpL23: DRSC04648 2.84e6

Records above whose target name begins with O or o (2):
mean viability with MMS, by gene and reagent
Or9a: DRSC18692 3.49e6
Obp50a: DRSC22152 3.48e6
